{"source": "PubChem BioAssay AID493246 (Drosophila RNAi Screening Center, 2011)", "purpose": "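Genes fly cells need to grow and stay alive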 (primary screen)", "system": "Drosophila Kc and S2R+ cells", "knock-down reagent": "long dsRNA against Drosophila genes", "measured": "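Cell number per well after knock-down, printed as raw plate values; calls were based on per-plate z-scores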", "direction": "Kc cell number and S2R+ cell number: higher = more cells remaining", "hit rule": "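Counted as a hit if cell number falls by a z-score of at least 3 within its plate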", "note": "The deposit covers about 21,000 reagents; this is an unselected part of those that have a named target and a result. In the full data, 429 (2%) are marked active. 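Values are raw and not normalised between plates; calls rest on per-plate z-scores that were not deposited.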 Names joined by + are all predicted targets of the reagent. Reagent sequences are not shown. Not given: the amount of reagent, the time to read-out."}
{"Target gene": "CG10332 (retired record) + IM18", "amplicon": "DRSC04064", "Kc cell number, rep 1": 1.60e6, "Kc cell number, rep 2": 1.76e6, "S2R+ cell number, rep 1": 1.24e6, "S2R+ cell number, rep 2": 1.39e6, "call": "inactive"}
{"Target gene": "CG40006 (GeneID 3355123)", "amplicon": "DRSC03787", "Kc cell number, rep 1": 5.57e5, "S2R+ cell number, rep 1": 9.04e5, "call": "inactive"}
{"Target gene": "CG40006 (GeneID 3355123)", "amplicon": "DRSC03809", "Kc cell number, rep 1": 6.35e5, "S2R+ cell number, rep 1": 8.39e5, "call": "inactive"}
{"Target gene": "CG40006 (GeneID 3355123)", "amplicon": "DRSC03814", "Kc cell number, rep 1": 5.04e5, "S2R+ cell number, rep 1": 8.98e5, "call": "inactive"}
{"Target gene": "CG40006 (GeneID 3355123)", "amplicon": "DRSC03817", "Kc cell number, rep 1": 5.59e5, "S2R+ cell number, rep 1": 8.12e5, "call": "inactive"}
{"Target gene": "Alg2 (GeneID 38374)", "amplicon": "DRSC08298", "Kc cell number, rep 1": 8.69e5, "Kc cell number, rep 2": 1.07e6, "S2R+ cell number, rep 1": 1.35e6, "S2R+ cell number, rep 2": 6.98e5, "call": "inactive"}
{"Target gene": "CG31407 (GeneID 318716)", "amplicon": "DRSC12761", "Kc cell number, rep 1": 1.42e6, "Kc cell number, rep 2": 1.56e6, "S2R+ cell number, rep 1": 1.07e6, "S2R+ cell number, rep 2": 1.21e6, "call": "inactive"}
{"Target gene": "cta (GeneID 3355131)", "amplicon": "DRSC03769", "Kc cell number, rep 1": 1.25e6, "Kc cell number, rep 2": 1.35e6, "S2R+ cell number, rep 1": 1.15e6, "S2R+ cell number, rep 2": 1.22e6, "call": "inactive"}
{"Target gene": "CG15170 (GeneID 35160)", "amplicon": "DRSC02471", "Kc cell number, rep 1": 1.48e6, "Kc cell number, rep 2": 1.58e6, "S2R+ cell number, rep 1": 1.29e6, "S2R+ cell number, rep 2": 3.62e5, "call": "inactive"}
{"Target gene": "CngA (GeneID 36806)", "amplicon": "DRSC06580", "Kc cell number, rep 1": 1.42e6, "Kc cell number, rep 2": 1.50e6, "S2R+ cell number, rep 1": 9.33e5, "S2R+ cell number, rep 2": 1.02e6, "call": "inactive"}
{"Target gene": "CngA (GeneID 36806)", "amplicon": "DRSC07362", "Kc cell number, rep 1": 1.47e6, "Kc cell number, rep 2": 1.58e6, "S2R+ cell number, rep 1": 1.14e6, "S2R+ cell number, rep 2": 1.21e6, "call": "inactive"}
{"Target gene": "CG30340 (GeneID 246550)", "amplicon": "DRSC05167", "Kc cell number, rep 1": 1.47e6, "Kc cell number, rep 2": 1.50e6, "S2R+ cell number, rep 1": 9.11e5, "S2R+ cell number, rep 2": 1.07e6, "call": "inactive"}
{"Target gene": "CG1738 (GeneID 32075)", "amplicon": "DRSC19772", "Kc cell number, rep 1": 1.71e6, "Kc cell number, rep 2": 1.60e6, "S2R+ cell number, rep 1": 1.16e6, "S2R+ cell number, rep 2": 1.29e6, "call": "inactive"}
{"Target gene": "mei-38 (GeneID 31104)", "amplicon": "DRSC18564", "Kc cell number, rep 1": 1.51e6, "Kc cell number, rep 2": 1.50e6, "S2R+ cell number, rep 1": 1.00e6, "S2R+ cell number, rep 2": 1.09e6, "call": "inactive"}
{"Target gene": "RpS29 + snoRNA:Psi18S-1275", "amplicon": "DRSC16433", "Kc cell number, rep 1": 1.14e6, "Kc cell number, rep 2": 1.19e6, "S2R+ cell number, rep 1": 8.56e5, "S2R+ cell number, rep 2": 9.67e5, "call": "inactive"}
{"Target gene": "mago (GeneID 37402)", "amplicon": "DRSC04703", "Kc cell number, rep 1": 1.68e6, "Kc cell number, rep 2": 1.81e6, "S2R+ cell number, rep 1": 1.40e6, "S2R+ cell number, rep 2": 3.85e5, "call": "inactive"}
{"Target gene": "CG7568 (GeneID 43482)", "amplicon": "DRSC16259", "Kc cell number, rep 1": 1.47e6, "Kc cell number, rep 2": 1.47e6, "S2R+ cell number, rep 1": 1.01e6, "S2R+ cell number, rep 2": 1.09e6, "call": "inactive"}
{"Target gene": "CG14937 (GeneID 34591)", "amplicon": "DRSC02419", "Kc cell number, rep 1": 1.74e6, "Kc cell number, rep 2": 1.62e6, "S2R+ cell number, rep 1": 1.30e6, "S2R+ cell number, rep 2": 1.47e6, "call": "inactive"}
{"Target gene": "Tep3 (GeneID 34045)", "amplicon": "DRSC03452", "Kc cell number, rep 1": 1.57e6, "Kc cell number, rep 2": 1.77e6, "S2R+ cell number, rep 1": 1.31e6, "S2R+ cell number, rep 2": 1.40e6, "call": "inactive"}
{"Target gene": "CG34292 (GeneID 5740196)", "amplicon": "DRSC13807", "Kc cell number, rep 1": 1.29e6, "Kc cell number, rep 2": 1.48e6, "S2R+ cell number, rep 1": 1.05e6, "S2R+ cell number, rep 2": 1.07e6, "call": "inactive"}
{"Target gene": "CG31342 (GeneID 41592)", "amplicon": "DRSC15349", "Kc cell number, rep 1": 1.73e6, "Kc cell number, rep 2": 1.87e6, "S2R+ cell number, rep 1": 1.49e6, "S2R+ cell number, rep 2": 1.55e6, "call": "inactive"}
{"Target gene": "CG31342 (GeneID 41592)", "amplicon": "DRSC16246", "Kc cell number, rep 1": 1.42e6, "Kc cell number, rep 2": 1.31e6, "S2R+ cell number, rep 1": 9.93e5, "S2R+ cell number, rep 2": 1.04e6, "call": "inactive"}
{"Target gene": "CG14445 (GeneID 31556)", "amplicon": "DRSC17938", "Kc cell number, rep 1": 1.54e6, "Kc cell number, rep 2": 1.53e6, "S2R+ cell number, rep 1": 1.17e6, "S2R+ cell number, rep 2": 1.23e6, "call": "inactive"}
{"Target gene": "CTCF (GeneID 38817)", "amplicon": "DRSC11004", "Kc cell number, rep 1": 1.28e6, "Kc cell number, rep 2": 1.33e6, "S2R+ cell number, rep 1": 1.28e6, "S2R+ cell number, rep 2": 1.22e6, "call": "inactive"}
{"Target gene": "CG32280 (GeneID 317952)", "amplicon": "DRSC08024", "Kc cell number, rep 1": 1.46e6, "Kc cell number, rep 2": 1.37e6, "S2R+ cell number, rep 1": 1.01e6, "S2R+ cell number, rep 2": 1.20e6, "call": "inactive"}
{"Target gene": "CG42369 (GeneID 33894)", "amplicon": "DRSC03244", "Kc cell number, rep 1": 1.54e6, "Kc cell number, rep 2": 1.61e6, "S2R+ cell number, rep 1": 1.07e6, "S2R+ cell number, rep 2": 1.24e6, "call": "inactive"}
{"Target gene": "CG7916 (GeneID 34800)", "amplicon": "DRSC01901", "Kc cell number, rep 1": 1.49e6, "Kc cell number, rep 2": 1.56e6, "S2R+ cell number, rep 1": 1.24e6, "S2R+ cell number, rep 2": 1.33e6, "call": "inactive"}

Looked up above:
For “call”, CG14445 (GeneID 31556) [DRSC17938] is entered as inactive
Result of CG40006 (GeneID 3355123) [DRSC03817] in “Kc cell number, rep 1”: 5.59e5
cta (GeneID 3355131) [DRSC03769], call → inactive
Value for CG42369 (GeneID 33894) [DRSC03244] under “S2R+ cell number, rep 2”: 1.24e6
